# Test results published in PubChem BioAssay AID493014 (National Center for Advancing Translational Sciences (NCATS), 2011).
# The whole screen tested about 340,000 compounds, of which about 170 (0.05%) were called active. Inconclusive means that the source gave no clear call. Such entries were picked first, then a sample of the others. Calls come from the whole dose curve; as a rule, active = well fitted inhibition curve with a large enough effect in the signal ratio, with a control signal flat (not every such curve was filed as active); inconclusive = small, poorly fitted or top-dose-only effect, or effect the other way, or a change in a side signal; inactive = flat fitted curve, though single readings scatter; the % refers to the signal ratio. Potencies of inconclusive entries are doubtful fits and often do not repeat.
# Test: qHTS Assay to Find Inhibitors of Chronic Active B-Cell Receptor Signaling;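 for activity change, negative = inhibition: plate controls were basal doxycycline-induced cells for no effect and cells given 10 µM MG132 for full effect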
# Settings: ABC-DLBCL IkBa-CBG/CBR reporter, luminescence ratio (green luciferase fused to IkBa over red control in TMD8 lymphoma cells), 4 h; activity change, negative = inhibition: at 46.1 µM (top of the series)
# In short: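 Cell line TMD8 (human ABC DLBCL), stably expressing tet-inducible CBG68-IkBa fusion and CBR; IMDM/0.5% FBS; cpd up to 46 uM; dox induction, 4 h, 37C/5% CO2; dual luminescence; green/red ratio; MG132 control.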
# Potency is the fitted concentration of half-maximal effect.
Compound,"activity change, negative = inhibition",Potency
COc1ccc(-n2ncc3c(Nc4cccc(C)c4)ncnc32)cc1,inconclusive: 9.04%,–
O=C(Cc1ccc(-n2cccc2)cc1)NCc1cccs1,–,"inconclusive: 3.16 µM [falling, partial curve, poor fit]"
COc1cccc(C(=O)Nc2ccc(NC(=O)C(C)(C)C)cn2)c1,inconclusive: -22.9%,–
C=CCn1cccc(C(=O)Nc2cc(OC)cc(OC)c2)c1=O,–,"inconclusive: 17.8 µM [falling, partial curve, poor fit]"
COc1ccc(CCN2C(=NC(=O)CC(C)C)SC3CS(=O)(=O)CC32)cc1 (stereo not given),inconclusive: 2.7%,–
Cc1ccccc1NC(=O)CSc1nc2ncc(Cl)cc2[nH]1,–,"inconclusive: 22.4 µM [falling, single point]"
CCOc1ccccc1NC(=O)c1cc2ccccc2oc1=O,inconclusive: -1.22%,–
O=C(OCC(=O)N1CCc2ccccc21)c1cccnc1Cl,–,"inconclusive: 35.5 µM [falling, single point]"
N#Cc1c(-c2ccccc2)nc(SCc2cccc(Cl)c2)[nH]c1=O,inactive,–
O=C(COc1ccccc1O)Nc1ccc(Cl)cc1,–,"inconclusive: 20 µM [falling, partial curve]"
O=C(c1cc(COc2c(F)cccc2F)on1)N1CCC(c2ccccc2Cl)C1 (stereo not given),inconclusive: 7.28%,–
O=C(NCC(=O)N1CCN(c2ccccc2O)CC1)c1ccccc1,–,"inconclusive: 11.2 µM [falling, partial curve]"
CCOc1cccc(/C=N/NS(=O)(=O)c2ccc(C)c([N+](=O)[O-])c2)c1O,inconclusive: -1.57%,–
O=C(CN1C(=O)NC2(CCOc3ccccc32)C1=O)c1cccs1 (stereo not given),inconclusive: 0.169%,–
Cc1c2cnn(CC(=O)NCCCN3CC(C)CC(C)C3)c(=O)c2c(C)n1Cc1ccccc1Cl (stereo not given),inactive,–
COc1ccc(C2SCC(=O)N2CC23CC4CC(CC(C4)C2)C3)cc1 (stereo not given),inactive,–
O=C(Nc1ncccc1Cl)c1cccc(F)c1,inconclusive: 6.42%,–
N=C1/C(=C\c2coc3ccc(O)cc3c2=O)C(=O)N=C2SC=CN12,inconclusive: 23.2%,–
COc1ccccc1NC(=O)CSc1nncn1-c1cccnc1,–,"inconclusive: 25.9 µM [falling, single point]"
CCOc1ccc(NC(=O)C(c2ccccn2)N(C(=O)CCl)c2ccc(F)cc2)cc1 (stereo not given),–,"inconclusive: 1.64 µM [falling, partial curve]"
Cc1onc(-c2c(F)cccc2Cl)c1C(=O)Nc1nnc(-c2ccccc2)s1,inconclusive: 19.8%,–
Cc1cc(SCC(=O)NC(=O)NCc2ccco2)nc2ccccc12,inconclusive: -10%,–
COc1ccc(C)cc1Nc1nc(-c2c[nH]c3ccccc23)cs1,–,"inconclusive: 16.4 µM [falling, partial curve]"
CCN(CC)CCCNC(=O)c1cc(-c2cccc(Cl)c2)on1,inconclusive: -15.5%,–
CN1CCN(c2sc(S(C)(=O)=O)nc2S(=O)(=O)c2ccc(Cl)cc2)CC1,inconclusive: -18.5%,–

Compound,"activity change, negative = inhibition",Potency
Cn1c(=O)c2cn(-c3ccc4c(c3)OCCO4)cc2n(C)c1=O,inconclusive: -3.27%,–
CSc1nc(C)cc(C)c1S(=O)(=O)c1ccccc1C,inactive,–
Cn1cccc1/C=N/NC(=O)c1cccs1,–,"inconclusive: 10 µM [falling, partial curve]"
COc1ccc2c(c1)CCc1c(C(=O)Nc3ccc(OC)c(OC)c3)noc1-2,inactive,–
Cc1ccc(SCc2cc(=O)c3c(=O)n(-c4ccccc4)[nH]c3[nH]2)cc1,inconclusive: 5.83%,–
CC1CC(C)CN(c2ccc([N+](=O)[O-])nc2)C1 (stereo not given),inactive,–
COc1ccc(CN(C)CC(=O)Nc2ccc(SC(F)F)cc2)cc1OC,–,"inconclusive: 8.91 µM [falling, partial curve, poor fit]"
CCN(CC)c1ccc(/C=N/Nc2nc(C)cc(=O)[nH]2)c(O)c1,inactive,–
O=C(NCCc1ccccc1)c1oc2ccccc2c1COc1ccccc1,inconclusive: 2.79%,–
C=CCN1CC(=O)N2C(C)c3[nH]c4ccccc4c3C[C@H]2C1=O (stereo not given in full),inconclusive: 1.11%,–
Cn1nccc1NC(=O)Nc1cccc(Cl)c1Cl,–,"inconclusive: 3.98 µM [falling, full curve]"
CCOC(=O)C1=c2/c(=C/c3ccccc3OC)c(N)c(C#N)n2C(=O)C(c2ccccc2OC)S1 (stereo not given),inconclusive: -4.3%,–
CC(C)(C)c1ccc(C(=O)C=[N+]=[N-])cc1,inconclusive: 4.79%,–
COc1cc2c(cc1C1NC(=S)NC(C)=C1C(N)=O)CCCC2 (stereo not given),inconclusive: -15%,–
C=CCNc1nc(-c2ccccc2)c(C(=O)OCC)cc1C#N,inactive,–
CNC(=O)c1sc(-c2cccs2)nc1C,–,"inconclusive: 14.1 µM [rising, partial curve, poor fit]"
CCSc1nnc(NC(=O)NC(C)(C(F)(F)F)C(F)(F)F)s1,inconclusive: 9.75%,–
Cc1cc(C(=O)COc2ccccc2C(N)=O)c(C)n1C1CC1,inconclusive: -0.728%,–
CC(=O)Nc1ccc(NC(=O)c2cc(-c3cc(C)c(C)cc3O)n[nH]2)cc1,inconclusive: -3.76%,–
COc1ccc(CCNC(=O)c2cc(-c3ccc(Cl)c(Cl)c3)oc2C)cc1,–,"inconclusive: 7.31 µM [rising, partial curve, poor fit]"
CC1=C(C)C(=O)OC(C(C)C2CCC3C4CC=C5CC(OC6OC(COC7OC(CO)C(O)C(O)C7O)C(O)C(O)C6O)CC(O)C5(C)C4CCC23C)C1 (stereo not given),inconclusive: -10.9%,–
Cc1ccc(C)c(S(=O)(=O)N2CCCC2CNC(=O)C(=O)NCCc2ccco2)c1 (stereo not given),inactive,–
BrC(/C=C\c1ccccc1)=N/Nc1nc(N2CCOCC2)nc(N2CCOCC2)n1,–,"inconclusive: 25.1 µM [falling, single point]"
CC(C)NC(=O)CSCc1cccc(Br)c1,–,"inconclusive: 32.6 µM [rising, single point]"
Cn1c(=O)c(C(=O)NCCO)c(O)c2ccccc21,–,"inconclusive: 14.6 µM [falling, partial curve]"

# Rewritten with bars between the fields: entries from further up.
Compound | activity change, negative = inhibition | Potency
COc1ccc(C2SCC(=O)N2CC23CC4CC(CC(C4)C2)C3)cc1 (stereo not given) | inactive | –
CCN(CC)c1ccc(/C=N/Nc2nc(C)cc(=O)[nH]2)c(O)c1 | inactive | –
